In patent EP4814018A2:
No constants are given. Whether binding was seen depends on the method and setting. Some results given as binding are weak or reduced against the parent protein; the word gives no strength.

Biological target: human transferrin receptor (human) (UniProt P02786)
Assay: SPR off-rate

B1: antibody comprising the heavy chain variable domain of SEQ ID NO: 24 and the light chain variable domain of SEQ ID NO: 37 (antibody, V domains shown)
VH: QSMQESGPGLVKPSQTLSLTCTVSGFSLSSYAMSWIRQHPGKGLEWIGYIWSGGSTDYASWAKSRVTISKTSTTVSLKLSSVTAADTAVYYCARRYGTSYPDYGDASGFDPWGQGTLVTVSS
VL: AIQLTQSPSSLSASVGDRVTITCRASQSISSYLAWYQQKPGKAPKLLIYRASTLASGVPSRFSGSGSGTDFTLTISSLQPEDFATYYCQQNYASSNVDNTFGGGTKVEIK
For B1, the binding was “binds”.
